We go through two molecules from article PMC10003074.

No constants are given. Whether binding was seen depends on the method and setting. Binding seen in cells or lysates may run through a third protein. Some entries that bind do so weakly or less than the wild type.

Test [1] has as its target T1, Ly108-2 (SLAMF6 isoform), from pervanadate-treated BI-141 cells (mouse) (UniProt Q9ET39).
T1 sequence (chain, tyrosine phosphorylation after pervanadate treatment; sites not mapped): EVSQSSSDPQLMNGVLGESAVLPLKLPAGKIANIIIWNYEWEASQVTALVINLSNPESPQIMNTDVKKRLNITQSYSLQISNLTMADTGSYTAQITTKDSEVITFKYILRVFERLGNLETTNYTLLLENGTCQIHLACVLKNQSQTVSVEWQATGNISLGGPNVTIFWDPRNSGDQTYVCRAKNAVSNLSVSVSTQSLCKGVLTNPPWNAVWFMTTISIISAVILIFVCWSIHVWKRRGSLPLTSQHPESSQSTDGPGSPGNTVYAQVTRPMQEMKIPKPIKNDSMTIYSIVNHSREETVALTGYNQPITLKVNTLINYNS
The experiment in a line: co-IP; BI-141 T-cell hybridoma expressing SAP and individual Ly108 isoforms; cells treated with pervanadate before lysis in Brij 98; Ly108 precipitated with anti-Ly108 13G3-19D and protein-G agarose, blot with anti-SAP; in a separate experiment the precipitates were deglycosylated with PNGaseF.

The target in test [2] is T2, Ly108-H1 in thymocytes from transgenic mice (mouse) (UniProt Q9ET39).
T2 sequence: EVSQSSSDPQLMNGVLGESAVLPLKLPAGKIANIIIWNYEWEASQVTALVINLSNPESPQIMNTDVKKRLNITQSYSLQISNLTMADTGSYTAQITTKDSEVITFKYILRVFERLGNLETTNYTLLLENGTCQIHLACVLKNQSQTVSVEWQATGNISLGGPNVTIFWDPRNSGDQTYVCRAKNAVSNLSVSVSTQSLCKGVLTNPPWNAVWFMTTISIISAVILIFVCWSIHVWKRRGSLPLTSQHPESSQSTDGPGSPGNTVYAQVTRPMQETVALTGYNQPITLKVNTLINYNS
As to the kind of experiment: co-IP; thymocytes from transgenic mice; details only in Supplementary Figure S2 (not shown).

B1: SLAM-associated protein (SAP) (protein, UniProt O88890 1-126)
chain: MDAVTVYHGKISRETGEKLLLATGLDGSYLLRDSESVPGVYCLCVLYQGYIYTYRVSQTETGSWSAETAPGVHKRFFRKVKNLISAFQKPDQGIVTPLQYPVEKSSGRGPQAPTGRRDSDICLNAP
For B1, the binding result in test [1] is “binds”.

B2: SLAM-associated protein (SAP), endogenous in murine thymocytes (protein, UniProt O88890 1-126)
chain: B1 chain
For B2, in test [2], the binding result is on record as “binds”.
